Measurements taken from US20140228423A1, “BIOMARKERS AND THERAPY FOR CANCER” (BAYLOR COLLEGE OF MEDICINE, priority 2011, published 2014).
Entries after “also recorded” stand apart in the source; their conditions may differ. For part of these data: At least one compound was matched to its structure with a doubt left. Some results were stated once for a whole list of compounds, not compound by compound. Some ranges recur; such a range may be that of the whole group of compounds.

Experiments:
[1] = test system: ovarian cancer and pancreatic cancer lines; test: Sensitivity of cancer lines to YM155; format: cell-based
[2] = test system: mouse serous cancer cell lines and the human serous cancer line OVCAR8; test: Treatment of serous cancer cell lines with YM155 or everolimus; format: cell-based
Source text: Well-known as an apoptosis inhibitor, survivin has been identified to contribute to nearly every aspect of cancer from onset to outcome (Altieri, 2008; Martinelli et al., 2006). Nearly all serous, endometrioid, and poorly-differentiated ovarian cancers express surviving (Cohen et al., 2003), the levels of survivin correlate with poor prognostic parameters (Cohen et al., 2003), high levels of survivin are associated with taxol/platinum resistance (Zaffaroni et al., 2002), and women with PTEN-negative/survivin-positive ovarian cancers have the worst prognosis (Sui et al., 2006). […] Based on these findings, the inventors treated mouse serous cancer cell lines and the human serous cancer line OVCAR8 with YM155 or everolimus, an inhibitor of mTOR (FIG. 5A, B). […] These findings indicate that YM155 and everolimus can be used to identify small molecules that synergize with the compounds to eradicate high-grade serous carcinomas in women.

[3] = test system: OVCAR8 cells; test: Illumina gene expression analysis of YM155-treated versus DMSO-treated OVCAR8 cells; format: cell-based, human; conditions: OVCAR8, 6 hours, YM155 10 nM versus DMSO
Description: To characterize the early targets of YM155 in cancer cells, the ovarian cancer cell line OVCAR8 was treated acutely for 6 hours with YM155 (10 nM). Using Illumina gene expression analysis and QPCR followup, YM155-treated cells were compared with DMSO vehicle treated cells. […] DDIT3 (a.k.a., CHOP) is a proapoptotic protein whose induction is a hallmark of ER stress induced apoptosis (Wang et al., 2010). […] HSP72 has strong cytoprotective effect by functioning as a molecular chaperone in cytosolic protein folding, transport, and degradation (Morimoto et al., 1997; Tavaria et al., 1996), and as an inhibitor of cellular apoptosis (Gamido et al., 2003; Samali and Orrenius, 1998). In addition, HSP72 interacts with ER stress sensor protein IRE1a thereby enhancing IREla-XBP1 signaling at the ER and promoting adaptation to ER stress and cell survival (Gupta et al., 2010). HSP72 is normally expressed at low levels, and is induced upon exposure to environmental stress to exert its cytoprotective effect. However, in cancer, HSP72 is constitutively expressed in many cancer cell lines and biopsies, and its expression correlates with poor prognosis (Gabai et al., 2009). HSP72 provides a selective advantage to cancer cells by suppressing default senescence via p53-dependent and p53-independent pathways (Yaglom et al., 2007). […]

[4] = test system: HEY, OV90, and SKOV3; test: YM155 effects on HSP72 genes and ER stress response in other ovarian cancer cell lines; format: cell-based, human
[5] = test system: OVCAR8 cells; test: High-throughput screen of Prestwick Chemical Library with or without YM155; conditions: compounds by themselves, low micromolar range

Row | Compound | sensitivity to YM155 [1] | apoptosis ([2]; mouse and human high-grade serous carcinoma cells) | sensitivity of the tumors (cell viability) ([2]; mouse serous cancer cell lines and OVCAR8) | survivin expression change [3] | suppression of the HSP72 genes and induction of the ER stress response [4] | OVCAR8 cell survival [5]
1 | COCCn1c2c([n+](Cc3cnccn3)c1C)C(=O)c1ccccc1C2=O [YM155, sepantronium bromide] | low nanomolar concentration range | apoptose at nanomolar concentrations; also recorded: causes apoptosis of ovarian cancer cells at nanomolar concentrations | sensitive to nanomolar levels | not significantly altered | confirmed | –
2 | CC[C@@]1(O)C(=O)OCc2c1cc1n(c2=O)Cc2cc3ccccc3nc2-1 [camptothecin] | – | – | – | – | – | 2-20%
